At least one compound was matched to its structure with a doubt left.
Tests used:
[1] = test system: S. aureus Xen36; assay: In vivo bioluminescence imaging of S. aureus pneumonia in hTG SP-B mice; set-up: species or system Staphylococcus aureus; conditions: infected SP-B-C mice, 50 mg/kg daily, 24 h to 48 h after infection, vs vehicle; p<0.01
[2] = test system: A549 cells; assay: Cell death by trypan blue staining in PM2.5-treated A549 cells; type: cell-based, human; conditions: 10 to 40 μM, PM2.5 100 μg/ml 24 h, dosage-dependent

With O=C(/C=C/c1ccc(O)cc1)C(C(=O)/C=C/c1ccc(O)cc1)C(=O)Nc1ccccc1 [CMC2.24] the “levels of bioluminescence (bacterial load) in lung” value [1] was “significantly lower” and the “ratio of dead cells/total cells (trypan blue)” value [2] was “reduced significantly”.
